From US20190010547A1, “MICRORNA-122 IN METABOLIC DISEASES” (Medizinische Universität Innsbruck, priority 2015, published 2019) come the findings set out here.

For this assay the following is noted: ASCOT participants, atorvastatin 10 mg/day vs placebo, baseline vs 1 year.

Each structure is given as a SMILES string.

For `CC(C)c1c(C(=O)Nc2ccccc2)c(-c2ccccc2)c(-c2ccc(F)cc2)n1CC[C@@H](O)C[C@@H](O)CC(=O)O` [atorvastatin], the “low-density lipoprotein cholesterol (LDL-C)” value is “concordant reduction”.
